Laboratory results from publication doi:10.1101/2025.02.04.636234.
Results are given in words; binding and its absence hold for the method and conditions named. For some of these results: In cells and extracts the contact can be indirect. Some results given as binding are weak or reduced against the parent protein; the word gives no strength. Tags and fused reporters may be left off the sequences shown.

Protein sequences, listed by entry. Tags and fused reporters are not part of them.
UniProt Q9FTA2: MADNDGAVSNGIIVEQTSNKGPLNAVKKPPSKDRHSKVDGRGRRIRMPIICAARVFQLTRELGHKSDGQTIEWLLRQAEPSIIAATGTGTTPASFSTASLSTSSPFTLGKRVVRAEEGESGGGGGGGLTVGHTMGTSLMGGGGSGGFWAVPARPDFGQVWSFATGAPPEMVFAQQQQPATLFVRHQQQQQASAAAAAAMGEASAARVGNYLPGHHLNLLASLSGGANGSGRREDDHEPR
UniProt Q9C7G4: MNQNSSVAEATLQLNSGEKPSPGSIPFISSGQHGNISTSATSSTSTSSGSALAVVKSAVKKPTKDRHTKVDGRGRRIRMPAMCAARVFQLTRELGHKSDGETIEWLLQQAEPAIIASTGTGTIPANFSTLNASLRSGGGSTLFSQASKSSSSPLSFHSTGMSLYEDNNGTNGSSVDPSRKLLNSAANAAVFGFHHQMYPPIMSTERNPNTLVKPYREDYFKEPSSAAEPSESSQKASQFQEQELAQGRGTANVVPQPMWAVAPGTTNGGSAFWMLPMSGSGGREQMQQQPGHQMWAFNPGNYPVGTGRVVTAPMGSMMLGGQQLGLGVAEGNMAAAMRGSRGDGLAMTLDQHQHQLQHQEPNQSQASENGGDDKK
UniProt Q9LSD5: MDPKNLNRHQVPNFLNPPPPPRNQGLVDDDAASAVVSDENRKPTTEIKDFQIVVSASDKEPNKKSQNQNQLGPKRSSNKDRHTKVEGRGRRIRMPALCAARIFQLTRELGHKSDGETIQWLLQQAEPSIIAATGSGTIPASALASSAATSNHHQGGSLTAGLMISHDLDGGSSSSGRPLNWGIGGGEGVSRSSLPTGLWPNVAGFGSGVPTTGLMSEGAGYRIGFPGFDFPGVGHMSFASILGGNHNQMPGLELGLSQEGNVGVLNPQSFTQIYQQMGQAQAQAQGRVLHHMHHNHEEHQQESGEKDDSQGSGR

Key:
[1] = molecular target: T1, LIGHT REGULATED WD1 (GAL4-BD fusion) (Arabidopsis thaliana (Col-0 cDNA)) (UniProt Q9LPV9); experiment: two-hybrid
T1 sequence: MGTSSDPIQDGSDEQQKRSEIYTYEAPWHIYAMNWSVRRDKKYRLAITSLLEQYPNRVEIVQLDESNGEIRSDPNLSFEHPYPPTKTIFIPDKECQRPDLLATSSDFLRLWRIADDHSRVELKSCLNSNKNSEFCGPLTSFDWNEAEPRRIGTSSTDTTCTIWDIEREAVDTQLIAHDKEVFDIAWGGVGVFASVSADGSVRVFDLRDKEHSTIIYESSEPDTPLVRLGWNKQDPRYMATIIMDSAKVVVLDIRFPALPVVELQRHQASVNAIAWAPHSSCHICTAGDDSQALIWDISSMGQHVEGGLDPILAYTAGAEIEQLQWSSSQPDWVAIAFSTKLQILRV

[2] = molecular target: T2, LIGHT REGULATED WD2 (GAL4-BD fusion) (Arabidopsis thaliana (Col-0 cDNA)) (UniProt Q38960); experiment: two-hybrid
T2 sequence: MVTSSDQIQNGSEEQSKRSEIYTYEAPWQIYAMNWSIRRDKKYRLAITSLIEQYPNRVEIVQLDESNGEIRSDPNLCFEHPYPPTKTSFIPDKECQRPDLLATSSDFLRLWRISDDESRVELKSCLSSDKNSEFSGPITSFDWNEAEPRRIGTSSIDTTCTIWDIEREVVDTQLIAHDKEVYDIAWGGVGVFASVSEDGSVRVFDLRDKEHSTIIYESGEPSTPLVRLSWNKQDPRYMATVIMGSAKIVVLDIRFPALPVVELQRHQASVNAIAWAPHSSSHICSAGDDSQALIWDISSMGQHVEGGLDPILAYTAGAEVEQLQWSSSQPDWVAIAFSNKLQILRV

[3] = molecular target: T3, … TESTA GLABRA 1 (GAL4-BD fusion) (Arabidopsis thaliana (Col-0 cDNA)) (UniProt Q9XGN1); experiment: two-hybrid
T3 sequence: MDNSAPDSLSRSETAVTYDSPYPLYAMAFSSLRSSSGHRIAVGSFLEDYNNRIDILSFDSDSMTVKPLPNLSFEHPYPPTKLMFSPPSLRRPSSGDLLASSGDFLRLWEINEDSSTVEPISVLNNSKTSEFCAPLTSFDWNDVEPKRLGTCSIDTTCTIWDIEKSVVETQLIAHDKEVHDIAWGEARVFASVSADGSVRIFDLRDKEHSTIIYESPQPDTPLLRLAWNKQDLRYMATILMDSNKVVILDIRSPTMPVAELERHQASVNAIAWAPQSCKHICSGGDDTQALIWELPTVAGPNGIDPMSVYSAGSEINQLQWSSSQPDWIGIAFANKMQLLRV

[4] = molecular target: T4, PRR5-HA (Arabidopsis thaliana) (UniProt Q6LA42); experiment: co-IP
T4 sequence: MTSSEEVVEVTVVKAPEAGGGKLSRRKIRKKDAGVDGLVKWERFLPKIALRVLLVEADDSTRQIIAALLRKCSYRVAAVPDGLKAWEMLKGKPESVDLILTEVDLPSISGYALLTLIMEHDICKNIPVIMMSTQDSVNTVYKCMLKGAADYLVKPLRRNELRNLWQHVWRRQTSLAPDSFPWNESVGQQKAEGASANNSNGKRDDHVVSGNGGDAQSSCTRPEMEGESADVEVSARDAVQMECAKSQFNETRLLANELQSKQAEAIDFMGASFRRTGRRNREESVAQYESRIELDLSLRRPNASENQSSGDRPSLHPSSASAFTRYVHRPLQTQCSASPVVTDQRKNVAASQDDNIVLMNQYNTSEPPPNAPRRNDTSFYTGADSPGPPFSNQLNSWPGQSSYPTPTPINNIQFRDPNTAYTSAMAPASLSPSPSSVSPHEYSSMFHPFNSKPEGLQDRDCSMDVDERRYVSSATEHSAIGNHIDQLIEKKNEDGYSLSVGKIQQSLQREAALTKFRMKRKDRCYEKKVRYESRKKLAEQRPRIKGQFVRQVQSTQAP

[5] = molecular target: T5, PRR7-HA (Arabidopsis thaliana) (UniProt Q93WK5); experiment: co-IP
T5 sequence: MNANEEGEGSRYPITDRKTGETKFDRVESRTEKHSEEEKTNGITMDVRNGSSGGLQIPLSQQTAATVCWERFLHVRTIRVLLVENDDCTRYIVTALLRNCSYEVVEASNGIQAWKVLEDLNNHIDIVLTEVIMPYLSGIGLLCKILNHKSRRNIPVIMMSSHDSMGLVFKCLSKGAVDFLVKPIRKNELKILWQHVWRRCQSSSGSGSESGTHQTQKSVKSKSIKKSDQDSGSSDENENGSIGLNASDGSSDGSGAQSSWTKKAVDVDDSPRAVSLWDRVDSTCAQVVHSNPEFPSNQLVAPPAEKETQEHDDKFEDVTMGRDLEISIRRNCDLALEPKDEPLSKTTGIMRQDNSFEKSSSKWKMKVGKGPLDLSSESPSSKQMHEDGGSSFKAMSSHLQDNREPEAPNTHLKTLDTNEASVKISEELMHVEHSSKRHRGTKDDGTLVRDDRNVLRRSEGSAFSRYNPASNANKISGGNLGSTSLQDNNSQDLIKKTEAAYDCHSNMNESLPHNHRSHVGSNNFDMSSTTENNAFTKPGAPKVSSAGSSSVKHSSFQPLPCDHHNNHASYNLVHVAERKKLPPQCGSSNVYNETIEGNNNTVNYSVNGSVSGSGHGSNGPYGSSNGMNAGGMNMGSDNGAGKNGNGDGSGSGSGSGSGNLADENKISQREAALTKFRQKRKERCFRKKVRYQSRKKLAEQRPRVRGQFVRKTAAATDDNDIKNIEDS

[6] = molecular target: T6, PRR9-HA (Arabidopsis thaliana) (UniProt Q8L500); experiment: co-IP
T6 sequence: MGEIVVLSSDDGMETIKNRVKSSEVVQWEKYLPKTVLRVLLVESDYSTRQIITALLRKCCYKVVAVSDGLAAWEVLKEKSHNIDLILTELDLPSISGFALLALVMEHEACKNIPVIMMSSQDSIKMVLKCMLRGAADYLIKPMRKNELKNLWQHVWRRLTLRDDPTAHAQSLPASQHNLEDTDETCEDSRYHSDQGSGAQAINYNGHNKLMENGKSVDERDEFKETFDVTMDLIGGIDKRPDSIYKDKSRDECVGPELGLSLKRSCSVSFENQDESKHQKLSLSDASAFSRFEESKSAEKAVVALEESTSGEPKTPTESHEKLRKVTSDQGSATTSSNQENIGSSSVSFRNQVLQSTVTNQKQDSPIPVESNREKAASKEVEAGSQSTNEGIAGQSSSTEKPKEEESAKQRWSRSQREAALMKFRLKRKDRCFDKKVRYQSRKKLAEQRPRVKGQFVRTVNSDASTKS

[7] = molecular target: T7, TOC1-HA (Arabidopsis thaliana) (UniProt Q9LKL2); experiment: co-IP
T7 sequence: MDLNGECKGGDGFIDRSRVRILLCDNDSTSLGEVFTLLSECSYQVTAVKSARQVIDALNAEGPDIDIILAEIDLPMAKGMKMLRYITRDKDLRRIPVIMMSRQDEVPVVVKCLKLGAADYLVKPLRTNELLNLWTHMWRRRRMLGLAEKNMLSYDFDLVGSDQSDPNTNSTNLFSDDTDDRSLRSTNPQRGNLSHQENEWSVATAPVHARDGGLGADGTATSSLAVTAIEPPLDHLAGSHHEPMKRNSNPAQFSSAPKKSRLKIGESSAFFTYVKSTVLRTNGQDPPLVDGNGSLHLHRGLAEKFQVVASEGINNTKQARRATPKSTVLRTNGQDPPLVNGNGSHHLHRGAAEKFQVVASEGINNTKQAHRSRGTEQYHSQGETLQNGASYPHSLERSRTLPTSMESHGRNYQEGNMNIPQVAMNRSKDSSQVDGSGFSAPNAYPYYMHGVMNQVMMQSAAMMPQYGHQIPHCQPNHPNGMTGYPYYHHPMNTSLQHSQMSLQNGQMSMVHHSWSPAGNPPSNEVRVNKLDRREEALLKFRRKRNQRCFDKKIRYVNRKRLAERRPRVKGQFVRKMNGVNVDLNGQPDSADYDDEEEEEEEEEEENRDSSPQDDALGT

Measured: binding

CCA1-HICKING EXPEDITION (two-hybrid prey fusion) (from UniProt Q9FTA2 1-239)
binds: [1] | [2] | [3]

TCP22 (two-hybrid prey fusion) (from UniProt Q9C7G4 1-375)
binds: [1] | [2] | [3]

TCP20 (two-hybrid prey fusion) (from UniProt Q9LSD5 1-314)
binds: [1] | [2] | [3]

B1: mTurq-LWD1 (protein, UniProt Q9LPV9 1-346)
chain: MGTSSDPIQDGSDEQQKRSEIYTYEAPWHIYAMNWSVRRDKKYRLAITSLLEQYPNRVEIVQLDESNGEIRSDPNLSFEHPYPPTKTIFIPDKECQRPDLLATSSDFLRLWRIADDHSRVELKSCLNSNKNSEFCGPLTSFDWNEAEPRRIGTSSTDTTCTIWDIEREAVDTQLIAHDKEVFDIAWGGVGVFASVSADGSVRVFDLRDKEHSTIIYESSEPDTPLVRLGWNKQDPRYMATIIMDSAKVVVLDIRFPALPVVELQRHQASVNAIAWAPHSSCHICTAGDDSQALIWDISSMGQHVEGGLDPILAYTAGAEIEQLQWSSSQPDWVAIAFSTKLQILRV
binds: [4] | [5] | [6] | [7]

B2: mTurq-TTG1 (protein, UniProt Q9XGN1 1-341)
chain: MDNSAPDSLSRSETAVTYDSPYPLYAMAFSSLRSSSGHRIAVGSFLEDYNNRIDILSFDSDSMTVKPLPNLSFEHPYPPTKLMFSPPSLRRPSSGDLLASSGDFLRLWEINEDSSTVEPISVLNNSKTSEFCAPLTSFDWNDVEPKRLGTCSIDTTCTIWDIEKSVVETQLIAHDKEVHDIAWGEARVFASVSADGSVRIFDLRDKEHSTIIYESPQPDTPLLRLAWNKQDLRYMATILMDSNKVVILDIRSPTMPVAELERHQASVNAIAWAPQSCKHICSGGDDTQALIWELPTVAGPNGIDPMSVYSAGSEINQLQWSSSQPDWIGIAFANKMQLLRV
binds: [4] | [5] | [6]
